Assay results: the supplement of paper PMC10735217
Where “and” joins values, the source holds several entries; their conditions need not be identical. Equal entries are not always repeated. Structures can show the parent of a compound that is named as a salt. Some of the results follow. Single values are uncertain here, since repeats match poorly.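 In a drug-repurposing library screen, luminescence reads luciferase driven by eight TEAD-binding elements, stably integrated into human kidney-derived cells. Compounds scoring over five robust Z scores above the plate mean are called hits.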

Test system: HEK293A TEAD-LUC reporter
Experiment: TEAD-luciferase reporter activity (YAP activation), robust Z score vs plate; higher = stronger YAP/TEAD activation
Settings: 24 h

| SMILES | TEAD-luciferase reporter activity (compound concentration: 200 nM) | TEAD-luciferase reporter activity (compound concentration: 2 uM) | TEAD-luciferase reporter activity (compound concentration: 10 uM) |
| --- | --- | --- | --- |
| C[S+](CC[C@H](N)C(=O)[O-])C[C@H]1O[C@@H](n2cnc3c(N)ncnc32)[C@H](O)[C@@H]1O (some centres undefined) [Ademetionine] | inactive: -0.983 | inactive: -0.731 | inactive: 4.71 |
| O=C(CCCN1CCC(C(=O)c2ccc(F)cc2)CC1)c1ccc(F)cc1 | inactive: 3.63 | inactive: -0.191 | inactive: -0.834 |
| NCC(=O)N1Cc2ccccc2CC12CCCN(C(=O)c1ccccc1)C2 (centres undefined) | inactive: -1.73 | – | inactive: -1.25 |
| CC(C)(O)c1nc2ccccc2cc1N | inactive: 2.51 | inactive: -0.364 | inactive: 2.27 |
| Oc1ccc(CC2NCCc3cc(O)c(O)cc32)cc1 (centres undefined) [Norcoclaurine] | inactive: -0.552 | inactive: -0.327 | inactive: 2.3 |
| O=C(NO)c1ccc(C2=Nc3ccccc3Oc3ccccc32)cc1 | inactive: -0.13 | active: 9.2 | active: 22.7 |
| CC(C)Oc1cc(Nc2nc(N[C@@H](C)c3ccc(F)cc3)c(C#N)cc2F)[nH]n1 | inactive: -1.34 and inactive: -0.53 | inactive: -1.57 and inactive: -1.11 | inactive: -1.88 and inactive: 1.15 |
| CN1CCC(CN2c3ccccc3Sc3ccccc32)C1 (centres undefined) [Methdilazine Hydrochloride] | inactive: -0.635 | inactive: -0.0405 | inactive: 2.32 |
| COCc1nn2c(CN3C[C@@H](CC(F)(F)Cl)CC3=O)c(C(F)(F)F)nc2s1 [Padsevonil] | inactive: 0.31 | – | inactive: 1.47 |
| Cc1ccc(O)c(NCCCN2CCN(C(c3ccc(F)cc3)c3ccc(F)cc3)CC2)c1 | inactive: -0.164 | inactive: 1.06 | inactive: -0.174 |
| COc1ccccc1OC(=O)C(C)c1ccc(CC(C)C)cc1 (centres undefined) [methoxybutropate] | inactive: 1.43 | inactive: 0.987 | inactive: -1.02 |
| COCCCc1ccc2oc(-c3ccc(OC)c(OC)c3)cc2c1 | inactive: -0.258 | inactive: -0.316 | inactive: 1.5 |
| CC1CCCCN1CCCOC(=O)c1ccccc1 (centres undefined) | inactive: -0.994 | inactive: -0.266 | inactive: -0.188 |
| CCCCOc1cc(CC2CNC(=O)N2)ccc1OC (centres undefined) | inactive: -1.17 | inactive: 0.38 | inactive: 0.588 |
| O=C(O[C@@H]1Cc2c(O)cc(O)cc2O[C@@H]1c1cc(O)c(O)c(O)c1)c1cc(O)c(O)c(O)c1 [Epigallocatechin gallate989-51-5] | inactive: 0.223 | – | inactive: 1.22 |
| O=C(O)[C@@H]1C[C@@H](Cc2cccc(F)c2)CN1 | inactive: 1.34 | inactive: -0.231 | inactive: 2.03 |
| CC1(C)N=C(N)N=C(N)N1OCc1ccc(Cl)c(Cl)c1 | inactive: -0.415 | inactive: -1.23 | inactive: 0.694 |

Random excerpt: 2 entries already listed.

| SMILES | TEAD-luciferase reporter activity (compound concentration: 200 nM) | TEAD-luciferase reporter activity (compound concentration: 2 uM) | TEAD-luciferase reporter activity (compound concentration: 10 uM) |
| --- | --- | --- | --- |
| O=C(NO)c1ccc(C2=Nc3ccccc3Oc3ccccc32)cc1 | inactive: -0.13 | active: 9.2 | active: 22.7 |
| O=C(O[C@@H]1Cc2c(O)cc(O)cc2O[C@@H]1c1cc(O)c(O)c(O)c1)c1cc(O)c(O)c(O)c1 [Epigallocatechin gallate989-51-5] | inactive: 0.223 | – | inactive: 1.22 |

(next part)

| SMILES | TEAD-luciferase reporter activity (compound concentration: 200 nM) | TEAD-luciferase reporter activity (compound concentration: 2 uM) | TEAD-luciferase reporter activity (compound concentration: 10 uM) |
| --- | --- | --- | --- |
| COc1ccc(-c2ccc3cc(C(=O)O)ccc3c2)cc1C12CC3CC(CC(C3)C1)C2 [Adapalene] | inactive: -0.165 | inactive: -1.93 | inactive: -2.25 |
| OC(Cn1cnnn1)(c1ccc(F)cc1F)C(F)(F)c1ccc(-c2ccc(OC(F)(F)F)cc2)cn1 (centres undefined) | inactive: 3.41 | inactive: -0.578 | inactive: 1.99 |
| CCOc1nc(N)c2ncn(C3CCCCC3)c2n1 | inactive: -0.954 | inactive: -0.0558 | inactive: 1.61 |
| Cc1cccc(C)c1NC(=O)C1CCCCN1CC1CC1 (centres undefined) | inactive: 1.91 | inactive: -1.87 | inactive: -1.44 |
| O=C(O)CCC(/C=C\Cc1ccc(OCCCCOc2ccccc2)cc1)Sc1ccc(C(=O)O)cc1 (centres undefined) | inactive: 0.477 | inactive: 0.295 | inactive: -0.155 |
| Clc1ccccc1CNc1ccc(-n2ccnc2)nn1 | inactive: -1.19 | inactive: 0.94 | active: 6.61 |
| C[C@H](CC(=O)C[C@@H](C)[C@H]1C[C@H](O)C2(C)C3=C(C(=O)C[C@]12C)[C@@]1(C)CCC(=O)C(C)(C)[C@@H]1C[C@@H]3O)C(=O)O (some centres undefined) [Ganoderic acid A] | inactive: 3.7 | inactive: 0.137 | inactive: 1.12 |
| COc1c(C)cnc(Cn2cc(C#CCC(C)(C)O)c3c(Cl)nc(N)nc32)c1C | inactive: -1.97 | inactive: -1.93 | inactive: -0.816 |
| O=C(O)CC1Cc2ccc(OCCCNc3ccccn3)cc2CN(CC(F)(F)F)C1=O (centres undefined) | inactive: -0.751 | inactive: -1.03 | inactive: -2.09 |
| COc1cc2sc(C(=N)NO)cc2c(F)c1OC | inactive: -0.597 | inactive: -0.212 | inactive: 0.579 |
| CN(C)CCOc1ccc2[nH]c(C(=O)NCC#Cc3ccc(C(=O)NO)cc3)cc2c1 | active: 8.89 | active: 16.5 | active: 29.7 |
| CN(C)CCNC(=O)c1cc(C(=O)N=C(N)N)cc(-c2cc(Cl)sc2Cl)c1 | inactive: -0.708 | inactive: -0.498 | inactive: 2.01 |
| CN1CCN(c2ccccc2/C=C2\SCCN(c3ccc(Cl)c(Cl)c3)C2=O)CC1 | inactive: -0.334 | inactive: 0.107 | inactive: -1.16 |
| CCCCc1nc(C)n(Cc2ccccc2C(=O)O)c(=O)c1Cc1ccc(-c2ccccc2-c2nnn[nH]2)cc1 | inactive: -0.338 | inactive: 1.85 | inactive: -0.0397 |
| CCOC(=O)[C@H](C)NP(=O)(N[C@@H](C)C(=O)OCC)c1ccc(-c2nc(N)sc2CC(C)C)o1 [Managlinat dialanetil] | inactive: -1.15 | inactive: 0.813 | inactive: -0.556 |
| COC(=O)N[C@H](C(=O)N1CCC[C@H]1c1nc2cc(-c3csc4c(-c5ccc(-c6cnc([C@@H]7CCCN7C(=O)[C@H](NC(=O)OC)c7ccccc7)[nH]6)cc5)csc34)ccc2[nH]1)C(C)C [Samatasvir] | inactive: -0.959 | inactive: 4.05 | inactive: 3.72 |
| O=c1c(O)c(-c2cc(O)c(O)c(O)c2)oc2cc(O)cc(O)c12 [myricetin] | inactive: -0.661 | inactive: -1.3 | inactive: -1.52 |
